# The supplement of paper PMC8728848
# The list shows a part of the results.
# B1: SJCP1084 (Schistosoma japonicum) (protein)
# chain: MRIINLVIISTALLLINLLQTKSQANGEDTKNGTPDDPGLTKSTELKVEVQALLKDKKTNMRVKWNENLLDNTKPEYHNLRDEACELLLQIVRSVVPLSQDDGECKDVTFTKYVVGTKDGAVNVKLTITFKDSVAINQKPMDLKLKLENDFKNLQSESTLKATKPTFTVKVEKRLIPISKPQTTPPTTAKNDASKENVGDIGGEDSTVPTAAPATAASANEEKDEGDKDNKDSQHPNVLTSNVNDRNLIIALVALMILAIGVALTAAVKQR
# How the values were obtained:
# Test in all cases: glycan array binding signal (z-score within array); higher = stronger binding
# Conditions in all cases: glycan notation: IUPAC condensed, linker removed
# [1] = biological target: Fuc(a1-2)[Gal(a1-3)]Gal(b1-4)GlcNAc(b1-2)Man(a1-3)[Fuc(a1-2)[Gal(a1-3)]Gal(b1-4)GlcNAc(b1-2)Man(a1-6)]Man(b1-4)GlcNAc(b1-4)[Fuc(a1-6)]GlcNAc
# Outline: (§1)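 From the Consortium for Functional Glycomics database, 3228 arrays were curated, keeping only those whose protein sequence was available. Binding is given as a within-array Z-score averaged across arrays sharing a protein sequence and across linkers. Negative Z-scores can be read as non-binding.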
# [2] = biological target: Fuc(a1-2)[Gal(a1-3)]Gal(b1-4)GlcNAc(b1-3)GalNAc
# Outline: as §1
# [3] = biological target: Fuc(a1-2)[Gal(a1-3)]Gal(b1-4)GlcNAc(b1-3)[Fuc(a1-2)[Gal(a1-3)]Gal(b1-4)GlcNAc(b1-6)]GalNAc
# Outline: as §1
# [4] = biological target: Fuc(a1-2)[Gal(a1-3)]Gal(b1-4)GlcNAc(b1-6)GalNAc
# Outline: as §1
# [5] = biological target: Fuc(a1-2)[Gal(a1-3)]Gal(b1-4)[Fuc(a1-3)]Glc
# Outline: as §1
# [6] = biological target: Fuc(a1-2)[Gal(a1-3)]Gal(b1-4)[Fuc(a1-3)]GlcNAc
# Outline: as §1
# [7] = biological target: Fuc(a1-2)[Gal(a1-3)]Gal(b1-4)[Fuc(a1-3)]GlcNAc(b1-3)GalNAc
# Outline: as §1
# [8] = biological target: Fuc(a1-2)[Gal(a1-4)]Gal(b1-4)GlcNAc
# Outline: as §1
# [9] = biological target: Fuc(a1-2)[GalNAc(a1-3)]Gal
# Outline: as §1
# [10] = biological target: Fuc(a1-2)[GalNAc(a1-3)]Gal(b1-3)GalNAc(a1-3)[Fuc(a1-2)]Gal(b1-4)GlcNAc
# Outline: as §1
# [11] = biological target: Fuc(a1-2)[GalNAc(a1-3)]Gal(b1-3)GalNAc(b1-3)Gal(a1-4)Gal(b1-4)Glc
# Outline: as §1
# [12] = biological target: Fuc(a1-2)[GalNAc(a1-3)]Gal(b1-3)GlcNAc
# Outline: as §1
# [13] = biological target: Fuc(a1-2)[GalNAc(a1-3)]Gal(b1-3)GlcNAc(b1-2)Man(a1-3)[Fuc(a1-2)[GalNAc(a1-3)]Gal(b1-3)GlcNAc(b1-2)Man(a1-6)]Man(b1-4)GlcNAc(b1-4)GlcNAc
# Outline: as §1
# [14] = biological target: Fuc(a1-2)[GalNAc(a1-3)]Gal(b1-3)GlcNAc(b1-2)Man(a1-3)[Fuc(a1-2)[GalNAc(a1-3)]Gal(b1-3)GlcNAc(b1-2)Man(a1-6)]Man(b1-4)GlcNAc(b1-4)[Fuc(a1-6)]GlcNAc
# Outline: as §1
# [15] = biological target: Fuc(a1-2)[GalNAc(a1-3)]Gal(b1-3)GlcNAc(b1-3)GalNAc
# Outline: as §1
# [16] = biological target: Fuc(a1-2)[GalNAc(a1-3)]Gal(b1-3)GlcNAc(b1-6)GalNAc
# Outline: as §1
# [17] = biological target: Fuc(a1-2)[GalNAc(a1-3)]Gal(b1-4)Glc
# Outline: as §1
# [18] = biological target: Fuc(a1-2)[GalNAc(a1-3)]Gal(b1-4)GlcNAc
# Outline: as §1
# [19] = biological target: Fuc(a1-2)[GalNAc(a1-3)]Gal(b1-4)GlcNAc(b1-2)Man
# Outline: as §1
# [20] = biological target: Fuc(a1-2)[GalNAc(a1-3)]Gal(b1-4)GlcNAc(b1-2)Man(a1-3)[Fuc(a1-2)[GalNAc(a1-3)]Gal(b1-4)GlcNAc(b1-2)Man(a1-6)]Man(b1-4)GlcNAc(b1-4)GlcNAc
# Outline: as §1
# [21] = biological target: Fuc(a1-2)[GalNAc(a1-3)]Gal(b1-4)GlcNAc(b1-2)Man(a1-3)[Fuc(a1-2)[GalNAc(a1-3)]Gal(b1-4)GlcNAc(b1-2)Man(a1-6)]Man(b1-4)GlcNAc(b1-4)[Fuc(a1-6)]GlcNAc
# Outline: as §1
# [22] = biological target: Fuc(a1-2)[GalNAc(a1-3)]Gal(b1-4)GlcNAc(b1-3)Gal(b1-4)GlcNAc
# Outline: as §1
# [23] = biological target: Fuc(a1-2)[GalNAc(a1-3)]Gal(b1-4)GlcNAc(b1-3)Gal(b1-4)GlcNAc(b1-3)Gal(b1-4)GlcNAc
# Outline: as §1
# [24] = biological target: Fuc(a1-2)[GalNAc(a1-3)]Gal(b1-4)GlcNAc(b1-3)GalNAc
# Outline: as §1
# [25] = biological target: Fuc(a1-2)[GalNAc(a1-3)]Gal(b1-4)GlcNAc(b1-3)[Fuc(a1-2)[GalNAc(a1-3)]Gal(b1-4)GlcNAc(b1-6)]GalNAc
# Outline: as §1
# [26] = biological target: Fuc(a1-2)[GalNAc(a1-3)]Gal(b1-4)GlcNAc(b1-6)GalNAc
# Outline: as §1
# [27] = biological target: Fuc(a1-2)[GalNAc(a1-3)]Gal(b1-4)[Fuc(a1-3)]GlcNAc
# Outline: as §1
# [28] = biological target: Fuc(a1-2)[GalNAc(a1-3)]Gal(b1-4)[Fuc(a1-3)]GlcNAc(b1-3)GalNAc
# Outline: as §1
# [29] = biological target: Fuc(a1-2)[GalNAc(a1-4)]Gal(b1-4)GlcNAc
# Outline: as §1
# [30] = biological target: Fuc(a1-2)[GalNAc(b1-3)]Gal
# Outline: as §1
# Fuc(a1-3)GlcNAc = biological target: Fuc(a1-3)GlcNAc
# Outline: as §1
# [31] = biological target: Fuc(a1-3)[Gal(b1-4)]Glc6S
# Outline: as §1
# [32] = biological target: Fuc(a1-3)[Gal(b1-4)]GlcNAc
# Outline: as §1
# [33] = biological target: Fuc(a1-3)[Gal(b1-4)]GlcNAc(b1-2)Man
# Outline: as §1
# [34] = biological target: Fuc(a1-3)[Gal(b1-4)]GlcNAc(b1-2)Man(a1-3)[Fuc(a1-3)[Gal(b1-4)]GlcNAc(b1-2)Man(a1-6)]Man(b1-4)GlcNAc(b1-4)GlcNAc
# Outline: as §1
# [35] = biological target: Fuc(a1-3)[Gal(b1-4)]GlcNAc(b1-2)Man(a1-3)[Fuc(a1-3)[Gal(b1-4)]GlcNAc(b1-2)Man(a1-6)]Man(b1-4)GlcNAc(b1-4)[Fuc(a1-6)]GlcNAc
# Outline: as §1
# [36] = biological target: Fuc(a1-3)[Gal(b1-4)]GlcNAc(b1-3)Gal(b1-3)[Fuc(a1-4)]GlcNAc
# Outline: as §1
binder,measurement,setting,value
B1,glycan array binding signal (z-score),[1],0.955
same,glycan array binding signal (z-score),[2],-0.455
same,glycan array binding signal (z-score),[3],0.833
same,glycan array binding signal (z-score),[4],-1.88
same,glycan array binding signal (z-score),[5],-0.164
same,glycan array binding signal (z-score),[6],0.332
same,glycan array binding signal (z-score),[7],-0.005
same,glycan array binding signal (z-score),[8],2.61
same,glycan array binding signal (z-score),[9],0.405
same,glycan array binding signal (z-score),[10],-0.717
same,glycan array binding signal (z-score),[11],-1.18
same,glycan array binding signal (z-score),[12],0.643
same,glycan array binding signal (z-score),[13],0.364
same,glycan array binding signal (z-score),[14],-0.324
same,glycan array binding signal (z-score),[15],2.68
same,glycan array binding signal (z-score),[16],-0.94
same,glycan array binding signal (z-score),[17],-0.402
same,glycan array binding signal (z-score),[18],-0.655
same,glycan array binding signal (z-score),[19],-0.749
same,glycan array binding signal (z-score),[20],0.359
same,glycan array binding signal (z-score),[21],-0.506
same,glycan array binding signal (z-score),[22],-0.749
same,glycan array binding signal (z-score),[23],0.783
same,glycan array binding signal (z-score),[24],-1.18
same,glycan array binding signal (z-score),[25],0.142
same,glycan array binding signal (z-score),[26],-1.16
same,glycan array binding signal (z-score),[27],0.073
same,glycan array binding signal (z-score),[28],-0.545
same,glycan array binding signal (z-score),[29],-0.296
same,glycan array binding signal (z-score),[30],-0.223
same,glycan array binding signal (z-score),Fuc(a1-3)GlcNAc,-1.16
same,glycan array binding signal (z-score),[31],-0.662
same,glycan array binding signal (z-score),[32],-0.416
same,glycan array binding signal (z-score),[33],0.155
same,glycan array binding signal (z-score),[34],-1.61
same,glycan array binding signal (z-score),[35],1.19
same,glycan array binding signal (z-score),[36],-0.378

# Two successive entries out of the list so far:
binder,measurement,setting,value
B1,glycan array binding signal (z-score),[18],-0.655
same,glycan array binding signal (z-score),[19],-0.749
